Measurements reported in patent US20230406936A1 (IMMUNOURCHIN, published 2023).
Results are given in words; binding and its absence hold for the method and conditions named. Some entries that bind do so weakly or less than the wild type.

Amino acid sequences for entries named in this document (tags omitted). A change or cut given only in a name is not applied to a line headed by its entry.
UniProt Q9NZQ7: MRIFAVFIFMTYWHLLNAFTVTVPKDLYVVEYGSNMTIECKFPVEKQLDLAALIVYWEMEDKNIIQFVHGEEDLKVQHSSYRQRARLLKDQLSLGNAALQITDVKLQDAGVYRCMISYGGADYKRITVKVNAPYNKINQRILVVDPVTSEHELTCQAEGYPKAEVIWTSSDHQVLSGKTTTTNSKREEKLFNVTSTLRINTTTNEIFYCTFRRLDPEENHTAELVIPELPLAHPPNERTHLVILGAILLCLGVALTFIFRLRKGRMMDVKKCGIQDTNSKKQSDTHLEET

Assays:
[1] = target: native form of secretory sPD-L1-9, in culture supernatant of transfected MC38 cells (human) (UniProt Q9NZQ7); experiment: indirect (sandwich) ELISA with MC38 culture supernatant containing sPD-L1-9
[2] = target: recombinant PD-L1-9-HIS (secretory splice variant PD-L1-9 with HIS tag, from HEK293 cells) (human) (UniProt Q9NZQ7); experiment: direct ELISA, 50 ng/well rPD-L1-9-HIS coated, 100 ng/well antibody
[3] = target: native form of secretory sPD-L1-9, in culture supernatant of transfected MC38 cells (human) (UniProt Q9NZQ7); experiment: ELISA with MC38 culture supernatant containing native sPD-L1-9

B1: PD-L1 mouse monoclonal antibody #19 (antibody, mouse IgG2b, V domains shown)
VH: EVQLQQSGPELVKPGASVKISCKASGSAFSSSWMNWLKQRPGQGLEWIGRIYPGDGDTNYNGKFKGKATLTADKSSSTAYMQLSSLTSVDSAVYFCARRRANHYGSNWYFDVWGAGTTVTVSS
VL: NIVLTQSPASLAVSLGQRATISCRASESVDSYGKSFMHWYQQKPGQPPKLLIYLASNLESGVPARFSGSGSRTDFTLTIDPVEADDAATYYCQQNNEDPYTFGGGTKLEIK
notes: also called mAb #19; Ab #19
Q: What does the source list for B1?
A: binding [1]: binds; binding [2]: binds

B2: humanized PD-L1 antibody H6L2 (humanized mouse monoclonal antibody #19, VH6 + VL2) (antibody, V domains shown)
VH: EVQLQQSGAEVKKPGSSVKVSCKASGSAFSSSWMNWLKQRPGQGLEWIGRIYPGDGDTNYNGKFKGRVTLTADKSSSTAYMQLSSLRSEDTAVYFCARRRANHYGSNWYFDVWGAGTTVTVSS
VL: NIVLTQSPSSLSASVGDRVTITCRASESVDSYGKSFMHWYQQKPGQPPKLLIYLASNLESGVPSRFSGSGSRTDFTLTISSLQPEDFATYYCQQNNEDPYTFGGGTKLEIK
notes: also called humanized antibody H6L2; humanized antibody #19
Q: With B2 as the binder, how does the binding [3] read?
A: Its binding is “binds”.
